PMC6345439, “INDETERMINATE-DOMAIN 4 (IDD4) coordinates immune responses with plant-growth in Arabidopsis thaliana”
These are yes or no findings as the source states them, for the method shown. For some assays here: In cells and extracts the contact can be indirect. Some results given as binding are weak or reduced against the parent protein; the word gives no strength. Where a sequence is shown, tags or fusion partners need not be part of it.

Amino acid sequences for entries named in this document (tags omitted).
UniProt Q39026: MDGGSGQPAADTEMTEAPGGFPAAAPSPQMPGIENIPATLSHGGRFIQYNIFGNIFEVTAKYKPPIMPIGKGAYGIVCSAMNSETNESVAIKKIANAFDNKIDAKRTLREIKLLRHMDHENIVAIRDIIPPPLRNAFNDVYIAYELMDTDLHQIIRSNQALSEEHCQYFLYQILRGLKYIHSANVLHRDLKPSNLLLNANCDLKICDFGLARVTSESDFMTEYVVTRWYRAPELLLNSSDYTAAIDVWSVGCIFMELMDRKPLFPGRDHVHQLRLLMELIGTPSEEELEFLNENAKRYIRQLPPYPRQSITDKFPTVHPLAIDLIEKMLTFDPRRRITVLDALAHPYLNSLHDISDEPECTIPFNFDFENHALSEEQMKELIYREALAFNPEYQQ

T1: BD-GAI (C-terminal domain of GAI, amino acids 148 to 533) (Arabidopsis thaliana) (UniProt Q9LQT8)
T1 sequence: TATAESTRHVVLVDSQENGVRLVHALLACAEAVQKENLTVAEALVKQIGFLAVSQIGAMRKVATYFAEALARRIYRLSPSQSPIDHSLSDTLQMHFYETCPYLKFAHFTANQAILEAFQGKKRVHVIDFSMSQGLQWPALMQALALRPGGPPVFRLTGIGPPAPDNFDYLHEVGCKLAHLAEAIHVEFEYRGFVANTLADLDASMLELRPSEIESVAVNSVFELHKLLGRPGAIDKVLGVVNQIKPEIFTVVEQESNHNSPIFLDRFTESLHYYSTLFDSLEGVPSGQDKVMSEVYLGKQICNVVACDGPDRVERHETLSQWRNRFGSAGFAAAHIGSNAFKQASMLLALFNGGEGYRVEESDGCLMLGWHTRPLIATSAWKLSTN

T2: SCL3 (SCARECROW-like 3), BiFC fusion (Arabidopsis thaliana) (UniProt Q9LPR8)
T2 sequence: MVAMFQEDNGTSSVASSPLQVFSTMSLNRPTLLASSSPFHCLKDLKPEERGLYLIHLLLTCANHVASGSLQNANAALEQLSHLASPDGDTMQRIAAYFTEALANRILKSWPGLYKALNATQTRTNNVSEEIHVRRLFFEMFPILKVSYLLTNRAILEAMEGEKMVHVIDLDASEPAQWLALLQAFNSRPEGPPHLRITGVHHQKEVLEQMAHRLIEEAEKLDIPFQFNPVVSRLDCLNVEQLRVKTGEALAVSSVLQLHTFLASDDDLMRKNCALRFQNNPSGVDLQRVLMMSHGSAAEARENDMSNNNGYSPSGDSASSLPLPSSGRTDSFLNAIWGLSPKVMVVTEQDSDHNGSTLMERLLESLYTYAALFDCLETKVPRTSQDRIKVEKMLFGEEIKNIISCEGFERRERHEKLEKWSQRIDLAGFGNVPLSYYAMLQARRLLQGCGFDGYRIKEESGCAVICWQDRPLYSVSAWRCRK


Experiments:
[1] = molecular target: T1, BD-GAI (C-terminal domain of GAI, amino acids 148 to 533) (Arabidopsis thaliana); experiment: two-hybrid; yeast strain AH109 co-transformed with BD-GAI and AD fusions; growth on selective media lacking Leu, Trp, Ade and His
[2] = molecular target: GST-tagged MPK6 (Arabidopsis thaliana) (UniProt Q39026); experiment: pull-down; in vitro pull-down with MBP-His-tagged IDD4 and GST-tagged MAPKs; which protein was held is not told; no methods section for it
[3] = molecular target: T2, SCL3 (SCARECROW-like 3), BiFC fusion (Arabidopsis thaliana); experiment: split reporter; BiFC with N- and C-terminal parts of YFP, CaMV-35S promoter, agro-infiltrated Nicotiana benthamiana leaves with P19, confocal microscopy after 3 days; signal in the nucleus
[4] = molecular target: YFP^C-linked MPK6 (Arabidopsis thaliana) (UniProt Q39026); experiment: as above

binding [1] | binding [3] | Binder | other results
binds | – | AD-IDD4 (protein, UniProt Q8GYC1 1-516) MSSSSYNTSVIPSSSSSAQPFFITSSGTGDNDFNRKDTFMSMIQQPNSSAPPPKKRRNQPGNPNPDAEVVALSPKTLMATNRFICDVCNKGFQREQNLQLHRRGHNLPWKLKQKSTKEVKRKVYLCPEPTCVHHDPSRALGDLTGIKKHYYRKHGEKKWKCEKCSKRYAVQSDWKAHSKTCGTKEYRCDCGTIFSRRDSYITHRAFCDALIQETARNPTVSFTSMTAASSGVGSGGIYGRLGGGSALSHHHLSDHPNFGFNPLVGYNLNIASSDNRRDFIPQSSNPNFLIQSASSQGMLNTTPNNNNQSFMNQHGLIQFDPVDNINLKSSGTNNSFFNLGFFQENTKNSETSLPSLYSTDVLVHHREENLNAGSNVSATALLQKATQMGSVTSNDPSALFRGLASSSNSSSVIANHFGGGRIMENDNNGNLQGLMNSLAAVNGGGGSGGSIFDVQFGDNGNMSGSDKLTLDFLGVGGMVRNVNRGGGGGGRGSARGGVSLDGEAKFPEQNYPFGRG | –
binds | – | AD-IDD4-DD (protein, UniProt Q8GYC1 1-516) MSSSSYNTSVIPSSSSSAQPFFITSSGTGDNDFNRKDTFMSMIQQPNSSAPPPKKRRNQPGNPNPDAEVVALDPKTLMATNRFICDVCNKGFQREQNLQLHRRGHNLPWKLKQKSTKEVKRKVYLCPEPDCVHHDPSRALGDLTGIKKHYYRKHGEKKWKCEKCSKRYAVQSDWKAHSKTCGTKEYRCDCGTIFSRRDSYITHRAFCDALIQETARNPTVSFTSMTAASSGVGSGGIYGRLGGGSALSHHHLSDHPNFGFNPLVGYNLNIASSDNRRDFIPQSSNPNFLIQSASSQGMLNTTPNNNNQSFMNQHGLIQFDPVDNINLKSSGTNNSFFNLGFFQENTKNSETSLPSLYSTDVLVHHREENLNAGSNVSATALLQKATQMGSVTSNDPSALFRGLASSSNSSSVIANHFGGGRIMENDNNGNLQGLMNSLAAVNGGGGSGGSIFDVQFGDNGNMSGSDKLTLDFLGVGGMVRNVNRGGGGGGRGSARGGVSLDGEAKFPEQNYPFGRG | –
binds | – | AD-IDD4-AA (protein, UniProt Q8GYC1 1-516) MSSSSYNTSVIPSSSSSAQPFFITSSGTGDNDFNRKDTFMSMIQQPNSSAPPPKKRRNQPGNPNPDAEVVALAPKTLMATNRFICDVCNKGFQREQNLQLHRRGHNLPWKLKQKSTKEVKRKVYLCPEPACVHHDPSRALGDLTGIKKHYYRKHGEKKWKCEKCSKRYAVQSDWKAHSKTCGTKEYRCDCGTIFSRRDSYITHRAFCDALIQETARNPTVSFTSMTAASSGVGSGGIYGRLGGGSALSHHHLSDHPNFGFNPLVGYNLNIASSDNRRDFIPQSSNPNFLIQSASSQGMLNTTPNNNNQSFMNQHGLIQFDPVDNINLKSSGTNNSFFNLGFFQENTKNSETSLPSLYSTDVLVHHREENLNAGSNVSATALLQKATQMGSVTSNDPSALFRGLASSSNSSSVIANHFGGGRIMENDNNGNLQGLMNSLAAVNGGGGSGGSIFDVQFGDNGNMSGSDKLTLDFLGVGGMVRNVNRGGGGGGRGSARGGVSLDGEAKFPEQNYPFGRG | –

Further lines, the binder ahead of its results:

Binder | binding [1] | binding [3] | other results
MBP-His-tagged IDD4 (…-DOMAIN 4 / IMPERIAL EAGLE) (protein, UniProt Q8GYC1 71-516) ALSPKTLMATNRFICDVCNKGFQREQNLQLHRRGHNLPWKLKQKSTKEVKRKVYLCPEPTCVHHDPSRALGDLTGIKKHYYRKHGEKKWKCEKCSKRYAVQSDWKAHSKTCGTKEYRCDCGTIFSRRDSYITHRAFCDALIQETARNPTVSFTSMTAASSGVGSGGIYGRLGGGSALSHHHLSDHPNFGFNPLVGYNLNIASSDNRRDFIPQSSNPNFLIQSASSQGMLNTTPNNNNQSFMNQHGLIQFDPVDNINLKSSGTNNSFFNLGFFQENTKNSETSLPSLYSTDVLVHHREENLNAGSNVSATALLQKATQMGSVTSNDPSALFRGLASSSNSSSVIANHFGGGRIMENDNNGNLQGLMNSLAAVNGGGGSGGSIFDVQFGDNGNMSGSDKLTLDFLGVGGMVRNVNRGGGGGGRGSARGGVSLDGEAKFPEQNYPFGRG | – | – | binding [2]: binds
IDD4-DD (phospho-mimicking IDD4 S-73-D, T-130-D), BiFC fusion (protein, UniProt Q8GYC1 71-516) ALDPKTLMATNRFICDVCNKGFQREQNLQLHRRGHNLPWKLKQKSTKEVKRKVYLCPEPDCVHHDPSRALGDLTGIKKHYYRKHGEKKWKCEKCSKRYAVQSDWKAHSKTCGTKEYRCDCGTIFSRRDSYITHRAFCDALIQETARNPTVSFTSMTAASSGVGSGGIYGRLGGGSALSHHHLSDHPNFGFNPLVGYNLNIASSDNRRDFIPQSSNPNFLIQSASSQGMLNTTPNNNNQSFMNQHGLIQFDPVDNINLKSSGTNNSFFNLGFFQENTKNSETSLPSLYSTDVLVHHREENLNAGSNVSATALLQKATQMGSVTSNDPSALFRGLASSSNSSSVIANHFGGGRIMENDNNGNLQGLMNSLAAVNGGGGSGGSIFDVQFGDNGNMSGSDKLTLDFLGVGGMVRNVNRGGGGGGRGSARGGVSLDGEAKFPEQNYPFGRG | – | binds | –
YFP^N-IDD4 (protein, UniProt Q8GYC1 71-516) ALSPKTLMATNRFICDVCNKGFQREQNLQLHRRGHNLPWKLKQKSTKEVKRKVYLCPEPTCVHHDPSRALGDLTGIKKHYYRKHGEKKWKCEKCSKRYAVQSDWKAHSKTCGTKEYRCDCGTIFSRRDSYITHRAFCDALIQETARNPTVSFTSMTAASSGVGSGGIYGRLGGGSALSHHHLSDHPNFGFNPLVGYNLNIASSDNRRDFIPQSSNPNFLIQSASSQGMLNTTPNNNNQSFMNQHGLIQFDPVDNINLKSSGTNNSFFNLGFFQENTKNSETSLPSLYSTDVLVHHREENLNAGSNVSATALLQKATQMGSVTSNDPSALFRGLASSSNSSSVIANHFGGGRIMENDNNGNLQGLMNSLAAVNGGGGSGGSIFDVQFGDNGNMSGSDKLTLDFLGVGGMVRNVNRGGGGGGRGSARGGVSLDGEAKFPEQNYPFGRG | – | binds | binding [4]: binds
IDD4-AA (phospho-dead IDD4 S-73-A, T-130-A), BiFC fusion (protein, UniProt Q8GYC1 71-516) ALAPKTLMATNRFICDVCNKGFQREQNLQLHRRGHNLPWKLKQKSTKEVKRKVYLCPEPACVHHDPSRALGDLTGIKKHYYRKHGEKKWKCEKCSKRYAVQSDWKAHSKTCGTKEYRCDCGTIFSRRDSYITHRAFCDALIQETARNPTVSFTSMTAASSGVGSGGIYGRLGGGSALSHHHLSDHPNFGFNPLVGYNLNIASSDNRRDFIPQSSNPNFLIQSASSQGMLNTTPNNNNQSFMNQHGLIQFDPVDNINLKSSGTNNSFFNLGFFQENTKNSETSLPSLYSTDVLVHHREENLNAGSNVSATALLQKATQMGSVTSNDPSALFRGLASSSNSSSVIANHFGGGRIMENDNNGNLQGLMNSLAAVNGGGGSGGSIFDVQFGDNGNMSGSDKLTLDFLGVGGMVRNVNRGGGGGGRGSARGGVSLDGEAKFPEQNYPFGRG | – | binds | –
